Test results taken from patent US9168141B2, “Medical prosthetic devices and implants having improved biocompatibility” (Astra Tech AB, priority 2000, dated 2015).

Experiment: Extraction of amelogenin from titanium hydride implant layer, SDS-PAGE / western blot (Example 1)
Details: electrolysis 18 hours, pH 4, 70° C.
Source text: A two-chamber electrolysis cell was used to prepare a layer of titanium hydride containing the extracellular matrix molecule amelogenin onto five coin-shaped electropolished titanium implants each with a surface area of 0.6 cm^2 exposed to the electrolyte. Five similar items were used as controls by being present in the electrolyte chamber, but not connected to the electrolysis current. The electrolyte in both chambers was 1M NaCl in sterile water, pH adjusted to pH 4 by the use of HCl, and the initial concentration of amelogenin was 0.1 mg/ml. For electrolysis a voltage of 10 volts at a charge density of 1 mA/cm^2 was used. The temperature of the cathode chamber was set to 70° C. Electrolysis was allowed to progress for 18 hours, after which the titanium implants were removed from the electrolysis cell, washed in sterile water and allowed to air-dry in a desiccator.
After drying the titanium test and control specimens were each washed three times in 1 ml saline at pH 6.5. […] Amelogenin proteins were then detected by an immune assay using an rabbit amelogenin specific primary IgG antibody and a biotin labelled goat anti rabbit IgG secondary antibody.

amelogenin
amelogenins present in extracts from test specimens (western blot) (0.1 mg/ml amelogenin, after three saline washes, boiled in 2×SDS-PAGE sample buffer): significant amounts | amount of protein extracted from titanium hydride surface layer (by comparison with an amelogenin standard): 50 μg/cm^2
